Experimental data: US8063012B2, “Neuroprotective peptide inhibitors of AP-1 signaling and uses therefor” (Phylogica Limited, priority 2006, dated 2011)
“Also recorded” adds a separate entry of the source. Part of at least one peptide drawing is inferred or uncertain, most often the ends. Non-standard residues stand in square brackets, D forms with d. Residues, ends and D or L forms follow the SMILES beside them.

Legend:
[1] = tested on: cultured cortical neurons; test: In vitro ischemia model, Oxygen Glucose Deprivation (OGD), MTS assay; type: cell-based, rat; conditions: added before or immediately after 35 min OGD; MTS at 24 h; p<0.0001
[2] = tested on: neurons around the lesion in the somatosensory cortex; test: Acute cortical injury (focal traumatic brain injury), immunoreactivity in perilesion area; type: in vivo, rat; conditions: 5 μM peptide into the lesion plus Gelfoam, 1 day post-injury
Description: The ability of AP-1 signaling-inhibitory peptides to inhibit neuronal apoptosis was assessed by loss of MAP2 immunoreactivity in a focal model of traumatic brain injury (Chung et al., J. Neuroscience 23, 3336-3342, 2003; King et al., Neuropathol Appl Neurobiol. 27, 115-126, 2001).
Rats were subjected to acute cortical injury as previously described by Chung et al., J. Neuroscience 23, 3336-3342 (2003) and King et al., Neuropathol Appl Neurobiol. 27, 115-126 (2001). Briefly, male 240 g Hooded-Wistar rats were deeply anaesthetized using Isofluorane (2-3%) and were given an analgesic (Meloxycam, […]), by subcutaneous injection. Animals were immobilized in a Stoelting stereotactic frame, and a 21 gauge blunt Hamilton syringe was inserted into the Par1 region of the somatosensory cortex to a depth of 2 mm and was left in place for 10 minutes. […]
Sections were labelled with Nissl Red, Nuclear Yellow and anti-MAP2 to allow a quantitative assessment of neuronal loss around the lesion. Sections from the lesion centre and 200 μm anterior and posterior to the centre of the injury, at layer III of the neocortex were included in the analysis and the area of MAP2 loss was scored by blinded observers. Three sections from each of three animals were examined for each treatment and significance assessed by ANOVA and post-hoc comparison (Tukey test). […]

[3] = tested on: cortical neurons, intracellular Ca2+ influx; test: Neuronal intracellular calcium levels following glutamate exposure (Fura-2-AM); type: cell-based, rat; conditions: 5 μM peptide or MK801/CNQX, 100 μM glutamate; for amplitude between basal Ca2+ level and peak Ca2+ level: F340/F380
[4] = tested on: primary cortical neuronal cultures; test: Glutamate excitotoxicity in primary cortical neuronal cultures, neuronal viability by MTS assay; type: cell-based, rat; conditions: for neuroprotection by time of administration: 5 μM peptide administered prior to glutamate exposure
Description: Neurons were resuspended in Neurobasal (NB; Invitrogen) containing 2% B27 supplement (B27; Invitrogen). Before seeding, culture vessels comprising either a 96-well plastic plate or 24-well plastic plate with 13 mm glass coverslips (ProSciTech, Australia), were coated with poly-D-lysine (50 μg/mL; 70-150K; Sigma) and incubated overnight at room temperature. […] Neurons were plated to obtain approximately 10,000 viable neurons for each well of a 96-well plate, or 200,000 viable neurons per well of a 24-well plate, on day in vitro (DIV) […]. […] On DIV 4, one third of the culture medium was removed and replaced with fresh NB/2% B27 containing the mitotic inhibitor, cytosine arabinofuranoside (Sigma) at 1 μM concentration. On DIV 8, one half of the culture medium was replaced with NB/2% B27.
To induce glutamate excitotoxicity in the cortical neuronal cultures (96-well plate format), 50 μl of conditioned media containing 200 μM glutamate was added to culture wells containing 50 μl conditioned media (100 μM final glutamate concentration). Cultures were incubated at 37° C. in a CO2 incubator for 5 minutes, after which time the media was replaced with 100 μl of 50% NB/2% N2 and 50% balance salt solution (NB/N2:BSS).
Untreated and glutamate-treated control samples received media additions with and without glutamate respectively.
Eighteen hours after glutamate exposure, neuronal cultures were examined by light microscopy for qualitative assessment of neuronal damage. Neuronal viability was quantitatively measured by 3-(4,5,dimethyliazol-2-yl)-5-(3-carboxymethoxy-phenyl)-2-(4-sulfophenyl)-2H-tetrazolium salt (MTS) assay (Promega, Australia). The MTS assay measures the mitochondrial conversion of the tetrazolium salt to a water-soluble brown formazan salt, which is detected spectrophotometrically at 495 nm. MTS absorbance data was converted to reflect proportional cell viability relative to both the untreated and glutamate treated controls. […] All assays were performed with quadruplicate sister neuronal cultures repeated a minimum of four times independently.

[5] = tested on: primary cortical neuronal cultures; test: NMDA excitotoxicity in primary cortical neuronal cultures; type: cell-based, rat; conditions: 5 μM peptide 15 min prior; 200 μM NMDA for 15 minutes; p<0.0001
[6] = 500 nM (0.5 μM) extracellular concentration

SMILES | protection in Oxygen Glucose Deprivation [1] | neuroprotection compared with JNK1-1D-TAT (loss of MAP2 immunoreactivity) [2] | neuroprotection compared with negative control peptide PYC35D Scram-TAT (loss of MAP2 immunoreactivity) ([2]; p<0.05) | effect on neuronal Ca2+ entry following glutamate exposure [3] | amplitude between basal Ca2+ level and peak Ca2+ level [3] | neuroprotection following glutamate excitotoxicity [4, 6] | neuroprotection by time of administration [4] | protection against NMDA-induced excitotoxicity [5] | neuroprotection following glutamate excitotoxicity ([4]; 100 nM (0.1 μM) extracellular concentration) | neuroprotection compared with JNKI-1D-TAT ([4]; 1 μM concentration) | neuroprotection following glutamate excitotoxicity ([4]; 1 μM extracellular concentration) | neuroprotection compared with JNKI-1D-TAT ([4]; 2 μM concentrations)
CC[C@@H](C)[C@@H](NC(=O)[C@@H](CCC(=O)O)NC(=O)[C@@H](CO)NC(=O)[C@@H](CO)NC(=O)[C@@H](CO)NC(=O)[C@@H](CCCCN)NC(=O)[C@@H](CCCNC(=N)N)NC(=O)[C@@H](CCC(=O)O)NC(=O)[C@H](N)CCCNC(=N)N)C(=O)NCC(=O)NCC(=O)N[C@H](CO)C(=O)N[C@H](CCCNC(=N)N)C(=O)N[C@@H](C(=O)N[C@H](CO)C(=O)N[C@H](CCC(N)=O)C(=O)N[C@H](Cc1ccc(O)cc1)C(=O)N[C@H](C)C(=O)NCC(=O)N[C@H](CCCNC(=N)N)C(=O)N[C@H](CCCNC(=N)N)C(=O)N[C@H](CCCNC(=N)N)C(=O)N[C@H](CCC(N)=O)C(=O)N[C@H](CCCNC(=N)N)C(=O)N[C@H](CCCNC(=N)N)C(=O)N[C@H](CCCCN)C(=O)N[C@H](CCCCN)C(=O)N[C@H](CCCNC(=N)N)C(=O)NCC(=O)O)[C@H](C)CC [PYC35D-TAT] (H-[dR][dE][dR][dK][dS][dS][dS][dE][dI]GG[dS][dR][dI][dS][dQ][dY][dA]G[dR][dR][dR][dQ][dR][dR][dK][dK][dR]G-OH; N-terminus and C-terminus assumed) | protective | greater neuroprotection | neuroprotective | did not block neuronal Ca^2+ entry | 361 | significant (p<0.0242) neuroprotection | neuroprotective | protect cortical neurons against NMDA-induced excitotoxicity |  |  |  | 
CC[C@@H](C)[C@@H](NC(=O)[C@@H](CCCCN)NC(=O)[C@H]1CCCN1)C(=O)N[C@H](CO)C(=O)N[C@H](CCC(N)=O)C(=O)N[C@H](Cc1ccc(O)cc1)C(=O)NCC(=O)N[C@H](CCC(N)=O)C(=O)N[C@H](CCCNC(=N)N)C(=O)N[C@H](CCCNC(=N)N)C(=O)N[C@H](CCCNC(=N)N)C(=O)NCC(=O)N[C@H](CCC(N)=O)C(=O)N[C@H](CC(C)C)C(=O)NCC(=O)NCC(=O)N[C@H](CCCNC(=N)N)C(=O)N[C@H](CCCNC(=N)N)C(=O)N[C@H](CCCNC(=N)N)C(=O)N[C@H](CCC(N)=O)C(=O)N[C@H](CCCNC(=N)N)C(=O)N[C@H](CCCNC(=N)N)C(=O)N[C@H](CCCCN)C(=O)N[C@H](CCCCN)C(=O)N[C@H](CCCNC(=N)N)C(=O)NCC(=O)O [PYC36D-TAT] (H-[dP][dK][dI][dS][dQ][dY]G[dQ][dR][dR][dR]G[dQ][dL]GG[dR][dR][dR][dQ][dR][dR][dK][dK][dR]G-OH; N-terminus and C-terminus assumed) | protective |  |  | did not block neuronal Ca^2+ entry | 442 | significant neuroprotection | neuroprotective | protect cortical neurons against NMDA-induced excitotoxicity | significant neuroprotection; also recorded: significant (p<0.0196) protection | greater neuroprotection than JNKI-1D-TAT | significant neuroprotection | greater neuroprotection than JNKI-1D-TAT
